# Data as given in PubChem BioAssay AID493246 (Drosophila RNAi Screening Center, 2011)
# Assay: 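Genome-wide search for dsRNAs that reduce cell number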 (primary screen)
# System: Drosophila Kc and S2R+ cells
# Knock-down reagent: long dsRNA against Drosophila genes
# Read-out: 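Cell number per well after knock-down, printed as raw plate values; calls were based on per-plate z-scores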
# Scale: Kc cell number and S2R+ cell number: higher = more cells remaining
# Active means: 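Active when the per-plate z-score of cell number is 3 or more in the direction of fewer cells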
# The screen tested about 21,000 reagents; shown is an unselected part of those with a known target gene and a result. In the full data, 429 (2%) are marked active. 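Values are raw and not normalised between plates; calls rest on per-plate z-scores that were not deposited.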 The record does not give: the amount of reagent, the time to read-out.
target,amplicon,"Kc cell number, rep 1","Kc cell number, rep 2","S2R+ cell number, rep 1","S2R+ cell number, rep 2",Call
plum,DRSC16054,5.20e5,,7.80e5,,inactive
Gli,DRSC03332,1.60e6,1.64e6,1.34e6,1.46e6,inactive
Ephrin,DRSC17165,1.42e6,1.48e6,1.06e6,1.16e6,inactive
Muc11A,DRSC19498,1.46e6,1.47e6,1.11e6,1.17e6,inactive
FoxK,DRSC09859,1.22e6,1.27e6,1.10e6,9.53e5,inactive
CG14974,DRSC08433,1.48e6,1.31e6,9.91e5,1.20e6,inactive
CCKLR-17D1,DRSC20010,1.59e6,1.61e6,9.69e5,1.18e6,inactive
CCKLR-17D1,DRSC20011,1.61e6,1.64e6,1.01e6,1.14e6,inactive
CCKLR-17D1,DRSC20012,1.64e6,1.67e6,1.06e6,1.19e6,inactive
CG30046,DRSC06691,1.51e6,1.46e6,1.17e6,1.26e6,inactive
MnM,DRSC08423,1.49e6,1.48e6,1.05e6,1.21e6,inactive
CG2147,DRSC18211,5.82e5,,8.74e5,,inactive
gammaTub37C,DRSC03535,1.32e6,1.34e6,1.23e6,1.24e6,inactive
CG6028,DRSC15951,1.48e6,1.58e6,1.09e6,1.15e6,inactive
Grip128,DRSC20167,5.60e5,,8.69e5,,inactive
CG8172,DRSC07089,1.70e6,1.86e6,1.25e6,1.34e6,inactive
fra,DRSC07621,1.47e6,1.57e6,1.29e6,1.38e6,inactive
Eig71Ek,DRSC11158,1.35e6,1.37e6,1.20e6,1.37e6,inactive
Oli,DRSC02866,1.27e6,1.34e6,1.20e6,1.21e6,inactive
CG11378,DRSC18627,1.57e6,1.63e6,1.09e6,1.16e6,inactive
CG8726,DRSC07250,1.39e6,1.46e6,1.05e6,1.13e6,inactive
CG12662,DRSC17865,1.50e6,1.51e6,1.11e6,1.23e6,inactive
Arl5,DRSC10785,1.33e6,1.44e6,1.25e6,1.18e6,inactive
CG5577,DRSC10519,1.40e6,1.40e6,1.26e6,1.31e6,inactive

Copied from the entries so far for reference:
target,amplicon,"Kc cell number, rep 1","Kc cell number, rep 2","S2R+ cell number, rep 1","S2R+ cell number, rep 2",Call
fra,DRSC07621,1.47e6,1.57e6,1.29e6,1.38e6,inactive
Eig71Ek,DRSC11158,1.35e6,1.37e6,1.20e6,1.37e6,inactive
Oli,DRSC02866,1.27e6,1.34e6,1.20e6,1.21e6,inactive
